Measurements taken from the supplement of paper PMC3334620.
The full ranking holds about 33,000 sequences; the median of “E-score (-0.5 to 0.5)” is about -0.0034, and the highest 2% start at about 0.25. Some of the results follow.

Molecular target: T1, Yap3 (UniProt P38749)
T1 sequence: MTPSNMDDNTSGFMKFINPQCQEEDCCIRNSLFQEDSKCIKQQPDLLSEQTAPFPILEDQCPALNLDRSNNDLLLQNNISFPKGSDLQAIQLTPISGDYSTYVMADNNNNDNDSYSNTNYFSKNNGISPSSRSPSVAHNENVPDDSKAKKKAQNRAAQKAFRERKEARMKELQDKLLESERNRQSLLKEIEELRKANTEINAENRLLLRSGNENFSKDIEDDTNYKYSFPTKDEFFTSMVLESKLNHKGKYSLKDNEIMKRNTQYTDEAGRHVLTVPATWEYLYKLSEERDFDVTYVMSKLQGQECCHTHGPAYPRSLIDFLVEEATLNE
Assay: PBM E-score (8-mer binding enrichment) (E-score (-0.5 to 0.5)); higher = stronger / more preferred TF binding
Conditions: protein concentration: 100 nM; construct: GST-full length
Description: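 Universal 'all 10-mer' protein binding microarrays (Agilent AMADID 015681) probed with GST-tagged S. cerevisiae TFs (full-length or DBD) made by in vitro transcription/translation (PURExpress), about 100-200 nM. Bound TF was detected with fluorescent anti-GST. Each ungapped 8-mer (which stands for itself and its reverse complement) is scored by the PBM enrichment score (E-score), a modified Wilcoxon-Mann-Whitney statistic from -0.5 to +0.5, computed with the Universal PBM Analysis Suite. Scale: above 0.35 generally sequence-specific binding.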

| Sequence | PBM E-score |
| --- | --- |
| ATTATCAA | 0.217 |
| TCATATCA | 0.119 |
| CCATCCAC | -0.14 |
| GTTGGATA | -0.00914 |
| ATAGGGTG | -0.123 |
| GCGCGTAC | 0.0278 |
| CAGCCCGG | -0.216 |
| AGTCATCC | -0.179 |
| CATAAGGA | 0.035 |
| TCAAGAGA | 0.055 |
| ATCGCTCC | -0.171 |
| AGGCTCTA | -0.142 |
| CCCATCGG | -0.221 |
| CTCCGACA | -0.095 |
| ACTCTTGG | -0.107 |
| AAGCCTTG | 0.0576 |
| ACGTAAGT | 0.0805 |
| GACTATGC | -0.0131 |
| CCTATCCA | -0.0644 |
| ACCTTGAA | 0.0329 |
| CCGGAGCC | -0.209 |
| ATACGATA | 0.211 |
| GCCTGGCC | -0.261 |
| ATTTGTCG | 0.154 |
| ACTATGAC | 0.0508 |

| Sequence | PBM E-score |
| --- | --- |
| AGGGATGC | -0.123 |
| AAATTACG | 0.172 |
| ACGAACTG | -0.0673 |
| CAAGAGGG | -0.172 |
| AACGTATG | 0.00682 |
| ACCACCCG | -0.199 |
| CGGGAGAA | -0.0083 |
| AGGAGTTA | 0.0833 |
| TACGGGAA | -0.125 |
| GACCACCC | -0.203 |
| TACACGAA | 0.143 |
| ATCCGTTG | 0.0828 |
| AGGGCTAT | -0.131 |
| ACCTAGTC | -0.144 |
| TCACATCA | -0.0112 |
| CCTCATGA | -0.0469 |
| ATGGATGA | 0.0771 |
| ATTAATCA | 0.287 |
| GAACGACC | -0.224 |
| CCTGAAGA | 0.0543 |
| TCATGACA | 0.206 |
| AAAACCGA | 0.00347 |
| AGCAGGGA | -0.0854 |
| CTCCACAG | -0.213 |
| CGCGATGA | 0.197 |

| Sequence | PBM E-score |
| --- | --- |
| AATGTCTG | 0.0935 |
| AATCGAGG | 0.109 |
| TCCCGTCA | -0.0924 |
| TAAAACGA | 0.0385 |
| CAAGTGAG | -0.0145 |
| AATAGAGT | -0.0885 |
| CAATGTAA | 0.113 |
| ATGTACCC | 0.0217 |
| ACAACCAG | 0.0808 |
| AAACATCC | 0.0448 |
| CTACACGA | -0.0099 |
| AACATGAG | -0.0586 |
| ATGGCAAA | 0.0267 |
| CACACACA | 0.0351 |
| AGGCACAT | 0.0848 |
| AATGTATC | 0.211 |
| AGAAGAAC | 0.0205 |
| CGCATGAA | 0.111 |
| CCCATCCC | -0.262 |
| CCTGCGAA | -0.112 |
| GCGTCGAA | -0.00921 |
| CAGCAGAA | -0.088 |
| CTAACTAG | 0.0903 |
| TAATCGGA | 0.103 |
| ATCCTCGA | 0.0763 |

| Sequence | PBM E-score |
| --- | --- |
| CTCACAAC | 0.191 |
| CGTTAAGA | -0.0915 |
| AGTCACAT | -0.00331 |
| TGTGGTAA | 0.0974 |
| ATGGTCAC | 0.00352 |
| CGCGAGAG | -0.0457 |
| ACGGAAAA | 0.107 |
| AACCGGAC | -0.0376 |
| ATAGAGGA | -0.186 |
| ACCTCTCG | -0.0197 |
| AGGCAGTG | 0.0597 |
| ATGTAGCG | 0.0114 |
| AATGGATC | 0.0638 |
| ACCTCAGA | -0.0947 |
| GAGATAAA | 0.185 |
| AGGCCGCC | -0.145 |
| ACCGGCCA | -0.3 |
| GAGATCCC | -0.0512 |
| TGCTTCAA | 0.07 |
| ACATTCCA | -0.0217 |
| TCTATGAA | 0.0947 |
| CCAAAACA | -0.0255 |
| CCACAGAG | -0.167 |
| ATCCCAGA | -0.188 |
| ACCTGCCA | -0.108 |

| Sequence | PBM E-score |
| --- | --- |
| GGCTGCAA | -0.193 |
| GCTGATCC | 0.0129 |
| ACCTGAAC | -0.119 |
| AGTCCATG | -0.197 |
| CGGTACAA | 0.104 |
| AAAATATC | 0.257 |
| AGAATAAC | 0.0505 |
| CGTTCTAA | 0.0111 |
| AAGATGGG | -0.0453 |
| CAACCACC | -0.0839 |
| GGCTCCCA | -0.308 |
| ATTGCCGC | 0.0374 |
| ATGGAGGG | -0.287 |
| GCCGTCGA | 0.0529 |
| TCACCCAA | 0.15 |
| AAACAACG | 0.158 |
| AGGCCTTG | -0.279 |
| GTGGATAA | 0.024 |
| GAGGTCGA | -0.0132 |
| AGAAGCCT | 0.0664 |
| AGGCTGGC | -0.246 |
| CGGTAGAG | -0.106 |
| CGGCCCGC | -0.195 |
| AGCGAAAC | 0.204 |
| ACACTCTC | 0.195 |

| Sequence | PBM E-score |
| --- | --- |
| CGCCAACC | -0.193 |
| GGTAGAAA | 0.0804 |
| GCATCTCC | -0.107 |
| AGATATAT | 0.191 |
| CTTTTTCC | 0.0994 |
| CCGCCACA | -0.126 |
| AACAACCT | 0.0212 |
| AACACGTC | 0.0248 |
| AGGGTATC | -0.059 |
| CAAGTTAG | 0.0507 |
| CTCTAAAA | -0.072 |
| CACGCAGC | -0.243 |
| ATAGATCG | -0.0482 |
| AATACTTG | 0.114 |
| AGTACGTC | 0.0778 |
| AAGATTTA | 0.0921 |
| CGCCTAAA | -0.064 |
| AGGTCAGC | -0.0793 |
| CCCATGCG | -0.134 |
| TATATCAA | 0.237 |
| GCAGCTAC | -0.0551 |
| AATATCGC | 0.14 |
| CGCGATTA | 0.27 |
| CCCAAACA | 0.137 |
| AGTGACCC | -0.0843 |

| Sequence | PBM E-score |
| --- | --- |
| ATTGATCA | 0.0737 |
| GATTTCGC | 0.219 |
| GAGTTTCA | -0.0528 |
| CCACGCGC | -0.148 |
| CCGTTGTA | 0.148 |
| GCGTGTAC | -0.16 |
| CATAGTTA | 0.0154 |
| ACTTCGCT | -0.0063 |
| ATAAGCTC | 0.0274 |
| CGAAACCC | 0.0581 |
| ACACGCTG | 0.0177 |
| CCAGCTGC | -0.236 |
| GATTTGAC | 0.0257 |
| AATCTATG | 0.161 |
| AGCGTGGC | -0.157 |
| CTGTCGGC | -0.123 |
| GAGGACAA | 0.0335 |
| CGGAGGTC | -0.158 |
| CAATTTGA | 0.0883 |
| TACAACGA | 0.122 |
| ATAGCCCA | 0.0521 |
| CCCCGCGA | -0.12 |
